Data source: PubChem BioAssay AID504744 (Drosophila RNAi Screening Center, 2011)

Aim: 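Uncover factors, including feedback loops, that control dAkt activation in fly cells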 (primary screen)
System: Drosophila Kc167 cells
Knock-down reagent: long dsRNA against Drosophila genes, 250 ng dsRNA per well of a 384-well plate
Timing: 3 days of knock-down, then overnight serum-free starvation before stimulation
Treatment: bovine insulin at 387 nM for 10 minutes after 12 h without serum
Measurement: 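In-cell antibody fluorescence for phospho-dAkt in each well over DNA-dye signal, with log2 residuals expressed as z-scores adjusted for cell count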
Rule for the call: 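Under insulin, a gene counts as a hit if the average z-score of two replicates lies above 2.5 or below -2.5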
The deposit covers about 23,000 reagents; below is a random part of those that have a named target and a result. Over the whole deposit, 98 (0.43%) were called active. 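Only hit calls are given; the phospho-dAkt signals, z-scores and hit direction were not deposited.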 The numbers tell different reagents against one gene apart. A plus sign joins genes that one reagent is predicted to hit.

target gene | reagent | Outcome
CG8042 | 1 | inactive
CG4945 | 1 | inactive
CG17571 | 1 | inactive
CG17571 | 2 | inactive
Aplip1 | 1 | inactive
Aplip1 | 2 | inactive
Aplip1 | 3 | inactive
CG7295 | 1 | inactive
eIF4E3 | 1 | inactive
CG9933 | 1 | inactive
Ugt302K1 | 1 | inactive
CG11964 | 1 | inactive
CG31294 | 1 | inactive
CG6012 | 1 | inactive
CG18661 | 1 | inactive
CG34225 | 1 | inactive
CG12661 | 1 | inactive
CG9737 | 1 | inactive
yellow-f2 | 1 | inactive
CG8708 | 1 | inactive
CG1894 | 1 | inactive
tn | 1 | inactive
tn | 2 | active
sno | 1 | inactive
CG30479 | 1 | inactive
CG31523 | 1 | inactive
CG31523 | 2 | inactive
Lsp2 | 1 | inactive
Lsp2 | 2 | inactive
THG | 1 | inactive
Notum | 1 | active
CG10979 | 1 | inactive
CG5348 | 1 | inactive
CG34210 | 1 | inactive
Rack1 | 1 | inactive
CG42335 | 1 | inactive
CG42335 | 2 | inactive
Muc91C | 1 | inactive
Muc91C | 2 | inactive
Cbl | 1 | inactive
Cbl | 2 | inactive
sti | 1 | inactive
sti | 2 | inactive
endos | 1 | inactive
Rbp6 | 1 | inactive
Rbp6 | 2 | inactive
Rbp6 | 3 | inactive
Rbp6 | 4 | inactive
Rbp6 | 5 | inactive
CG18508 | 1 | inactive
Nup35 | 1 | inactive
CG7376 | 1 | inactive
janA | 1 | inactive
kar | 1 | inactive
Lk6 | 1 | inactive
Lk6 | 2 | inactive
Gnf1 | 1 | inactive
CG15699 (retired record) | 1 | inactive
Cyp4d2 | 1 | inactive
PKD | 1 | inactive
CG17234 | 1 | inactive
CG13840 | 1 | inactive
pre-mod(mdg4)-Z + mod(mdg4) + pre-mod(mdg4)-T | 1 | inactive
pre-mod(mdg4)-Z + mod(mdg4) + pre-mod(mdg4)-T | 2 | inactive
meep | 1 | inactive
Zasp52 | 1 | inactive
Zasp52 | 2 | inactive
bgcn | 1 | inactive
bgcn | 2 | inactive
CG10405 | 1 | inactive
sens | 1 | inactive
CG12914 | 1 | inactive
CG15356 | 1 | inactive
asRNA:CR42547 + CG15674 | 1 | inactive
Dfd | 1 | inactive
Vps16B | 1 | inactive
CG15399 | 1 | inactive
CG12194 | 1 | inactive
cGlr2 | 1 | inactive
prod | 1 | inactive
Nup50 | 1 | inactive
CG8907 | 1 | inactive
Lgr3 | 1 | inactive
Lgr3 | 2 | inactive
Ant2 | 1 | inactive
pkaap | 1 | inactive
CG14667 | 1 | inactive
CG11413 + CG4622 | 1 | inactive
Pop4 | 1 | inactive
CG10062 | 1 | inactive
CG10062 | 2 | inactive
Npc2f | 1 | inactive
Cyp301a1 | 1 | inactive
CG32544 | 1 | inactive
Lnpk | 1 | inactive
CG15734 | 1 | inactive
stumps | 1 | inactive
stumps | 2 | inactive
stumps | 3 | inactive
CG11052 | 1 | inactive
CG15279 | 1 | inactive
ppk19 | 1 | inactive
CG17154 | 1 | inactive
Nmnat | 1 | inactive
CG15390 | 1 | inactive
PK2-R1 | 1 | inactive
GstS1 | 1 | inactive
Pex5 | 1 | inactive
Csas | 1 | inactive
Lztr1 | 1 | inactive
Lztr1 | 2 | inactive
Atxn7 | 1 | inactive
CG12481 | 1 | inactive
CG32206 | 1 | inactive
CG32206 | 2 | inactive
CG32206 | 3 | inactive
CG32206 | 4 | inactive
CG32206 | 5 | inactive
CG32847 | 1 | inactive
CG9641 | 1 | inactive
CG33966 | 1 | inactive
Obp56a | 1 | inactive
Prosbeta2R2 | 1 | inactive
Odc1 | 1 | inactive
Dph1 | 1 | inactive
SIDL | 1 | inactive
CG4367 | 1 | inactive
CR32011 + CR32010 + PlexB + 1 more | 1 | inactive
CG8891 | 1 | inactive
mRpS26 | 1 | inactive
CG17261 | 1 | inactive
CG3589 | 1 | inactive
opa | 1 | inactive
opa | 2 | inactive
CG16800 | 1 | inactive
CG34197 (retired record) | 1 | inactive
feo | 1 | inactive
MstProx + Mst84Da | 1 | inactive
Plod | 1 | inactive
Plod | 2 | inactive
sol | 1 | inactive
HP5 | 1 | inactive
bai | 1 | inactive
mtt | 1 | inactive
mtt | 2 | inactive
mtt | 3 | inactive
mtt | 4 | inactive
GstT4 | 1 | inactive
CG8006 | 1 | inactive
dpr1 | 1 | inactive
dpr1 | 2 | inactive
Dark | 1 | inactive
COX5A | 1 | inactive
RhoGAP16F | 1 | inactive
hid | 1 | inactive
CG5541 | 1 | inactive
pain | 1 | inactive
CG2147 | 1 | inactive
simj | 1 | inactive
Mrtf | 1 | inactive
Mrtf | 2 | inactive
Mrtf | 3 | inactive
wupA | 1 | inactive
wupA | 2 | inactive
Trf2 | 1 | inactive
CG14933 + CG42486 | 1 | inactive
CG5068 | 1 | inactive
CG3690 | 1 | inactive
CG3690 | 2 | inactive
Hrb27C | 1 | inactive
wal | 1 | inactive
lic | 1 | inactive
CG44098 | 1 | inactive
CG44098 | 2 | inactive
CG13310 | 1 | inactive
hyd | 1 | inactive
CG3847 | 1 | inactive
CG3847 | 2 | inactive
BomT2 | 1 | inactive
CycC | 1 | inactive
LKRSDH | 1 | inactive
CG3565 | 1 | inactive
CG15140 | 1 | inactive
Mcm10 | 1 | inactive
Sf3b6 | 1 | inactive
Sse | 1 | inactive
CG9922 | 1 | inactive
Arl5 | 1 | inactive
spn-E | 1 | inactive
CG8405 | 1 | inactive
CG8405 | 2 | inactive
stac | 1 | inactive
stac | 2 | inactive
stac | 3 | inactive
l(2)efl | 1 | inactive
CG6431 | 1 | inactive
CG15160 | 1 | inactive
E(spl)mbeta-HLH | 1 | inactive
CG42445 | 1 | inactive
CG31088 | 1 | inactive

Targets listed so far whose target name starts with G or g:
target gene | reagent | Outcome
Gnf1 | 1 | inactive
GstS1 | 1 | inactive
GstT4 | 1 | inactive
